Source: paper PMC8183072
These are yes or no findings as the source states them, for the method shown. A result given as binding can be weak or reduced; the word gives no strength. Tags and fused reporters may be left off the sequences shown.

These substances were tested against T1, CaMYB31 (Capsicum annuum (from the prefix Ca and the plant material; not stated outright for this cDNA)) (assay: two-hybrid; AH109 yeast; pGADT7 and pGBKT7 fusions, forward and reverse orientation; growth on SD/-Trp-His-Leu-Ade against SD/-Trp-Leu; done by the manufacturer's instructions (Clontech)).
T1 sequence: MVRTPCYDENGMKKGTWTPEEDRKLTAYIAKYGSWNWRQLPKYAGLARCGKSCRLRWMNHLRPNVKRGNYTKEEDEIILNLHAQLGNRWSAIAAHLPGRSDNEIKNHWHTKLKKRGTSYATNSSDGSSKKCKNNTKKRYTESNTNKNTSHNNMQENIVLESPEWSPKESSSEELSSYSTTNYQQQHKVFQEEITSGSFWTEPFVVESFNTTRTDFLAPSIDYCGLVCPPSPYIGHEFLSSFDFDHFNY
With CabHLH007 (Capsicum annuum) the binding was “binds”.
With CabHLH026 (Capsicum annuum) the binding was “binds”.
For CabHLH086 (Capsicum annuum), the binding was “binds weakly”.
CabHLH009 (Capsicum annuum) was tested, and the binding was “binds”.
CabHLH063 (Capsicum annuum) was tested, and the binding was “binds weakly”.
